Laboratory results: PubChem BioAssay AID1224830 (NIAID, 2016)
Shown is a random part of about 18,000 reagents. Over the whole deposit, about 2,900 (16%) were called active. 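Calls are made per well; low scores hint the gene aids the LPS response, high scores that it dampens it.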 A number with no mark means an inactive call. Repeated entries: four replicate wells of each siRNA pool.

Aim: 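Genes whose knock-down alters the TNF-alpha reporter response to LPS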 (primary screen)
Cell system: human THP-1 monocytic leukaemia cells, TNF dual-luciferase reporter clone, PMA-differentiated to macrophage-like cells
Reagent: siRNA pool against human genes, 50 nM
Timing: LPS for 4 h, given about 3 days after siRNA transfection
Challenge: bacterial LPS (TLR4 ligand), 10 ng/ml
Measurement: 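TNF firefly reporter luminescence divided by renilla, normalised to the plate median, then turned into a robust z-score for each replicate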
Scale: TNF reporter robust z-score: higher = stronger TNF reporter response to LPS
Active means: 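a well is active when its z-score exceeds 2.8 or falls below -1.5; control wells carry no call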

Target gene	PubChem SID	TNF reporter robust z-score
SMPDL3B (GeneID 27293)	SID315456013	0.1
SMPDL3B (GeneID 27293)	SID315456013	-0.35
SMPDL3B (GeneID 27293)	SID315456013	-0.37
SMPDL3B (GeneID 27293)	SID315456013	-0.82
GUCA2B (GeneID 2981)	SID315449109	0.11
GUCA2B (GeneID 2981)	SID315449109	0.29
GUCA2B (GeneID 2981)	SID315449109	0.16
GUCA2B (GeneID 2981)	SID315449109	0.07
RBP3 (GeneID 5949)	SID315451081	-1.3
RBP3 (GeneID 5949)	SID315451081	0.34
RBP3 (GeneID 5949)	SID315451081	-0.85
RBP3 (GeneID 5949)	SID315451081	-1.23
FST (GeneID 10468)	SID315454114	-0.48
FST (GeneID 10468)	SID315454114	0.14
FST (GeneID 10468)	SID315454114	0.29
FST (GeneID 10468)	SID315454114	0.04
NUP210L (GeneID 91181)	SID315460892	-1.24
NUP210L (GeneID 91181)	SID315460892	-0.67
NUP210L (GeneID 91181)	SID315460892	-1.46
NUP210L (GeneID 91181)	SID315460892	-0.4
DMXL1 (GeneID 1657)	SID315448278	-0.93
DMXL1 (GeneID 1657)	SID315448278	-0.6
DMXL1 (GeneID 1657)	SID315448278	-0.43
DMXL1 (GeneID 1657)	SID315448278	-0.53
CHMP1A (GeneID 5119)	SID315450457	0.18
CHMP1A (GeneID 5119)	SID315450457	0.58
CHMP1A (GeneID 5119)	SID315450457	0.17
CHMP1A (GeneID 5119)	SID315450457	1.59
WFDC12 (GeneID 128488)	SID315461801	1.02
WFDC12 (GeneID 128488)	SID315461801	0.04
WFDC12 (GeneID 128488)	SID315461801	0.17
WFDC12 (GeneID 128488)	SID315461801	-0.42
ADAD2 (GeneID 161931)	SID315462738	-0.35
ADAD2 (GeneID 161931)	SID315462738	-0.37
ADAD2 (GeneID 161931)	SID315462738	1.76
ADAD2 (GeneID 161931)	SID315462738	-0.49
ECHDC1 (GeneID 55862)	SID315457918	0.01
ECHDC1 (GeneID 55862)	SID315457918	0.14
ECHDC1 (GeneID 55862)	SID315457918	-0.7
CYP3A5 (GeneID 1577)	SID315448216	-1.4
CYP3A5 (GeneID 1577)	SID315448216	-1.02
CYP3A5 (GeneID 1577)	SID315448216	-1.19
AMPD2 (GeneID 271)	SID315447301	-0.94
AMPD2 (GeneID 271)	SID315447301	0.35
AMPD2 (GeneID 271)	SID315447301	0.63
AMPD2 (GeneID 271)	SID315447301	1.26
IFT20 (GeneID 90410)	SID315460820	1
IFT20 (GeneID 90410)	SID315460820	0.43
IFT20 (GeneID 90410)	SID315460820	-0.9
IFT20 (GeneID 90410)	SID315460820	-0.66

Continued (9 carried over from the part before).
Target gene	PubChem SID	TNF reporter robust z-score
CYP3A5 (GeneID 1577)	SID315448216	-1.19
AMPD2 (GeneID 271)	SID315447301	-0.94
AMPD2 (GeneID 271)	SID315447301	0.35
AMPD2 (GeneID 271)	SID315447301	0.63
AMPD2 (GeneID 271)	SID315447301	1.26
IFT20 (GeneID 90410)	SID315460820	1
IFT20 (GeneID 90410)	SID315460820	0.43
IFT20 (GeneID 90410)	SID315460820	-0.9
IFT20 (GeneID 90410)	SID315460820	-0.66
ANLN (GeneID 54443)	SID315457007	-1.66 (active)
ANLN (GeneID 54443)	SID315457007	-0.19
ANLN (GeneID 54443)	SID315457007	-0.69
ANLN (GeneID 54443)	SID315457007	-0.39
USP54 (GeneID 159195)	SID315462688	-0.6
USP54 (GeneID 159195)	SID315462688	-1.39
USP54 (GeneID 159195)	SID315462688	-0.36
USP54 (GeneID 159195)	SID315462688	-0.41
ZNF383 (GeneID 163087)	SID315462774	-0.89
ZNF383 (GeneID 163087)	SID315462774	-0.69
ZNF383 (GeneID 163087)	SID315462774	-0.65
ZNF383 (GeneID 163087)	SID315462774	-0.23
WDR35 (GeneID 57539)	SID315458451	-0.14
WDR35 (GeneID 57539)	SID315458451	-0.31
WDR35 (GeneID 57539)	SID315458451	-1.11
WDR35 (GeneID 57539)	SID315458451	-0.84
SBNO2 (GeneID 22904)	SID315454862	-0.06
SBNO2 (GeneID 22904)	SID315454862	-0.3
SBNO2 (GeneID 22904)	SID315454862	0.45
SBNO2 (GeneID 22904)	SID315454862	-0.28
CCDC68 (GeneID 80323)	SID315459753	3.39 (active)
CCDC68 (GeneID 80323)	SID315459753	1.6
CCDC68 (GeneID 80323)	SID315459753	2.64
CCDC68 (GeneID 80323)	SID315459753	1.87
CGREF1 (GeneID 10669)	SID315454285	2.8 (active)
CGREF1 (GeneID 10669)	SID315454285	1.6
CGREF1 (GeneID 10669)	SID315454285	-0.59
CGREF1 (GeneID 10669)	SID315454285	-0.48
